The source of these data is US12491217B2, “Compositions and methods for promoting healthy neural development in an unborn baby” (The Regents of the University of California, priority 2019, dated 2025).

This series can be described thus: Metabolomics of fetal brain at E14.5. In kind it is in vivo, C57Bl/6J mice. The settings on record: metabolite level in E14.5 fetal brain; for fold of change ABX/SPF: ANOVA contrast ABX/SPF; for fold of change GF/ABX: ANOVA contrast GF/ABX; for fold of change GF/SPF: ANOVA contrast GF/SPF; for fold of change GF/Sp: ANOVA contrast GF/Sp; for fold of change Sp/ABX: ANOVA contrast Sp/ABX; for fold of change Sp/SPF: ANOVA contrast Sp/SPF.

For `Cn1cc(C(N)=O)ccc1=O` [compound 3643], the “fold of change ABX/SPF” value is recorded as 1.08, the “fold of change GF/ABX” value is 0.86, the “fold of change GF/SPF” value was found to be 0.93 and the “fold of change GF/Sp” value turned out to be 0.58. For the same compound, the “fold of change Sp/ABX” value was 1.48 and the “fold of change Sp/SPF” value is 1.59.

Take `Cn1ccc(=O)c(C(N)=O)c1` [compound 3644]: the “fold of change ABX/SPF” value came out at 1.04, the “fold of change GF/ABX” value was 0.94, the “fold of change GF/SPF” value worked out at 0.97 and the “fold of change GF/Sp” value amounted to 0.59. The “fold of change Sp/ABX” value was found to be 1.58 and the “fold of change Sp/SPF” value is reported as 1.65.

`Cc1cc2nc3c(=O)[nH]c(=O)nc-3n(C[C@H](O)[C@H](O)[C@H](O)COP(=O)(O)OP(=O)(O)OC[C@H]3O[C@@H](n4cnc5c(N)ncnc54)[C@H](O)[C@@H]3O)c2cc1C` [compound 3649]: the “fold of change ABX/SPF” value amounted to 0.77, the “fold of change GF/ABX” value stood at 1.00, the “fold of change GF/SPF” value is on record as 0.77 and the “fold of change GF/Sp” value stood at 0.88. Also, the “fold of change Sp/ABX” value is recorded as 1.13 and the “fold of change Sp/SPF” value was determined as 0.87.

For `Cc1cc2nc3c(=O)[nH]c(=O)nc-3n(C[C@H](O)[C@H](O)[C@H](O)COP(=O)(O)O)c2cc1C` [compound 3650], the “fold of change ABX/SPF” value is 0.85, the “fold of change GF/ABX” value is listed as 0.83, the “fold of change GF/SPF” value is on record as 0.71 and the “fold of change GF/Sp” value is 0.92. Besides, the “fold of change Sp/ABX” value amounted to 0.91 and the “fold of change Sp/SPF” value was 0.77.

As to `CC(C)(CO)[C@@H](O)C(=O)NCCC(=O)O` [compound 3651], the “fold of change ABX/SPF” value was determined as 0.80, the “fold of change GF/ABX” value worked out at 0.90, the “fold of change GF/SPF” value came to 0.72 and the “fold of change GF/Sp” value is 0.74. For the same compound, the “fold of change Sp/ABX” value is 1.22 and the “fold of change Sp/SPF” value turned out to be 0.98.

On to `CC(C)(COP(=O)(O)O)[C@@H](O)C(=O)NCCC(=O)NCCS` [compound 3653], for which the “fold of change ABX/SPF” value was 0.97, the “fold of change GF/ABX” value is 0.71, the “fold of change GF/SPF” value was 0.69 and the “fold of change GF/Sp” value was found to be 1.05. Moreover, the “fold of change Sp/ABX” value was found to be 0.68 and the “fold of change Sp/SPF” value turned out to be 0.65.

In the case of `CC(C)(COP(=O)(O)OP(=O)(O)OCC1OC(n2cnc3c(N)ncnc32)C(O)C1OP(=O)(O)O)C(O)C(=O)NCCC(=O)NCCS` (stereo not drawn) [compound 3656], the “fold of change ABX/SPF” value is 0.94, the “fold of change GF/ABX” value is reported as 0.89, the “fold of change GF/SPF” value was 0.84 and the “fold of change GF/Sp” value is given as 1.03. Besides, the “fold of change Sp/ABX” value turned out to be 0.87 and the “fold of change Sp/SPF” value stood at 0.81.

Take `CC(C)(CO)[C@@H](O)C(=O)NCCC(=O)NCCS` [compound 3658]: the “fold of change ABX/SPF” value worked out at 0.78, the “fold of change GF/ABX” value worked out at 0.74, the “fold of change GF/SPF” value is reported as 0.57 and the “fold of change GF/Sp” value was determined as 0.88. The “fold of change Sp/ABX” value was determined as 0.84 and the “fold of change Sp/SPF” value came to 0.65.

In the case of `O=C1O[C@H]([C@@H](O)CO)C(O)=C1O` [compound 3662], the “fold of change ABX/SPF” value is listed as 1.07, the “fold of change GF/ABX” value was determined as 0.57, the “fold of change GF/SPF” value is given as 0.60 and the “fold of change GF/Sp” value came out at 0.91. For the same compound, the “fold of change Sp/ABX” value came out at 0.63 and the “fold of change Sp/SPF” value is recorded as 0.67.

Take `O=C1O[C@H]([C@@H](O)CO)C(=O)C1=O` [compound 3663]: the “fold of change ABX/SPF” value was 0.24, the “fold of change GF/ABX” value is 2.77, the “fold of change GF/SPF” value is on record as 0.66 and the “fold of change GF/Sp” value came out at 0.78. Also, the “fold of change Sp/ABX” value worked out at 3.56 and the “fold of change Sp/SPF” value is 0.85.

On to `O=C(O)C(O)C(O)CO` (stereo not drawn) [compound 3664], for which the “fold of change ABX/SPF” value is given as 0.51, the “fold of change GF/ABX” value stood at 2.35, the “fold of change GF/SPF” value is reported as 1.20 and the “fold of change GF/Sp” value is recorded as 1.12. In addition, the “fold of change Sp/ABX” value is 2.10 and the “fold of change Sp/SPF” value is reported as 1.08.

Consider `O=C(O)C(=O)O` [compound 3667], for which the “fold of change ABX/SPF” value came out at 0.61, the “fold of change GF/ABX” value stood at 1.62, the “fold of change GF/SPF” value is given as 0.99 and the “fold of change GF/Sp” value is on record as 0.96. In addition, the “fold of change Sp/ABX” value is given as 1.68 and the “fold of change Sp/SPF” value is given as 1.03.

On to `O=C(O)C(O)C(O)C(O)C(O)CO` (stereo not drawn) [compound 3668], for which the “fold of change ABX/SPF” value is given as 0.74, the “fold of change GF/ABX” value is on record as 1.05, the “fold of change GF/SPF” value was found to be 0.78 and the “fold of change GF/Sp” value is recorded as 0.98. Moreover, the “fold of change Sp/ABX” value was found to be 1.07 and the “fold of change Sp/SPF” value was 0.80.

For `CN1c2c(nc(N)[nH]c2=O)NCC1CNc1ccc(C(=O)NC(CCC(=O)O)C(=O)O)cc1` (stereo not drawn) [compound 3698], the “fold of change ABX/SPF” value was determined as 0.92, the “fold of change GF/ABX” value worked out at 0.87, the “fold of change GF/SPF” value was 0.80 and the “fold of change GF/Sp” value is reported as 0.71. Also, the “fold of change Sp/ABX” value amounted to 1.22 and the “fold of change Sp/SPF” value is on record as 1.12.

For the compound `C=CC1=C(C)c2cc3[n-]c(cc4[n-]c(cc5nc(cc1n2)C(C)=C5C=C)c(C)c4CCC(=O)O)c(CCC(=O)O)c3C.[Fe+2]` [compound 3714], the “fold of change ABX/SPF” value turned out to be 0.89, the “fold of change GF/ABX” value came to 0.46, the “fold of change GF/SPF” value was found to be 0.41 and the “fold of change GF/Sp” value is given as 0.97. Moreover, the “fold of change Sp/ABX” value was determined as 0.47 and the “fold of change Sp/SPF” value came out at 0.42.

As to `C=CC1=C(C)/C(=C/c2[nH]c(Cc3[nH]c(/C=C4\NC(=O)C(C)=C4C=C)c(C)c3CCC(=O)O)c(CCC(=O)O)c2C)NC1=O` [compound 3715], the “fold of change ABX/SPF” value is given as 0.78, the “fold of change GF/ABX” value was found to be 0.84, the “fold of change GF/SPF” value is 0.66 and the “fold of change GF/Sp” value is 1.25. The “fold of change Sp/ABX” value was 0.68 and the “fold of change Sp/SPF” value is reported as 0.53.

In the case of `C=CC1=C(C)C(=CC2=NC(=Cc3[nH]c(C=C4NC(=O)C(C)=C4C=C)c(C)c3CCC(=O)O)C(CCC(=O)O)=C2C)NC1=O` [compound 3718], the “fold of change ABX/SPF” value was 0.92, the “fold of change GF/ABX” value is 0.78, the “fold of change GF/SPF” value is 0.71 and the “fold of change GF/Sp” value is reported as 1.08. Further, the “fold of change Sp/ABX” value is listed as 0.72 and the “fold of change Sp/SPF” value is 0.66.

`Cc1ncc(C[n+]2csc(CCO)c2C)c(N)n1` [compound 3727]: the “fold of change ABX/SPF” value is 0.67, the “fold of change GF/ABX” value stood at 0.84, the “fold of change GF/SPF” value was 0.56 and the “fold of change GF/Sp” value was determined as 0.88. Also, the “fold of change Sp/ABX” value was determined as 0.96 and the “fold of change Sp/SPF” value is reported as 0.64.

In the case of `Cc1ncc(C[n+]2csc(CCOP(=O)(O)O)c2C)c(N)n1` [compound 3728], the “fold of change ABX/SPF” value amounted to 0.84, the “fold of change GF/ABX” value was 0.99, the “fold of change GF/SPF” value is recorded as 0.83 and the “fold of change GF/Sp” value was 0.93. The “fold of change Sp/ABX” value is given as 1.06 and the “fold of change Sp/SPF” value amounted to 0.89.

Consider `Cc1ncc(CO)c(CN)c1O` [compound 3751], for which the “fold of change ABX/SPF” value stood at 0.95, the “fold of change GF/ABX” value came to 0.61, the “fold of change GF/SPF” value is listed as 0.58 and the “fold of change GF/Sp” value turned out to be 0.72. Besides, the “fold of change Sp/ABX” value is recorded as 0.85 and the “fold of change Sp/SPF” value is given as 0.81.

For `Cc1ncc(CO)c(C=O)c1O` [compound 3754], the “fold of change ABX/SPF” value is given as 0.83, the “fold of change GF/ABX” value amounted to 0.87, the “fold of change GF/SPF” value came to 0.72 and the “fold of change GF/Sp” value was found to be 0.81. For the same compound, the “fold of change Sp/ABX” value turned out to be 1.07 and the “fold of change Sp/SPF” value worked out at 0.89.

With `O=C(O)CNC(=O)c1ccccc1` [compound 3757], the “fold of change ABX/SPF” value worked out at 0.24, the “fold of change GF/ABX” value was 1.00, the “fold of change GF/SPF” value came to 0.24 and the “fold of change GF/Sp” value worked out at 0.58. The “fold of change Sp/ABX” value was 1.72 and the “fold of change Sp/SPF” value turned out to be 0.42.

Turning to `O=C(O)c1ccccc1` [compound 3771], the “fold of change ABX/SPF” value is listed as 0.96, the “fold of change GF/ABX” value was 1.17, the “fold of change GF/SPF” value is listed as 1.12 and the “fold of change GF/Sp” value was found to be 1.22. For the same compound, the “fold of change Sp/ABX” value was found to be 0.96 and the “fold of change Sp/SPF” value is on record as 0.92.

With `O=Cc1c[nH]c2ccccc12` [compound 3978], the “fold of change ABX/SPF” value came to 0.59, the “fold of change GF/ABX” value is 1.37, the “fold of change GF/SPF” value is 0.81 and the “fold of change GF/Sp” value was found to be 0.96. The “fold of change Sp/ABX” value came to 1.43 and the “fold of change Sp/SPF” value stood at 0.84.

As to `O=C(O)[C@H](O)[C@@H](O)[C@H](O)[C@H](O)CO` [compound 4000], the “fold of change ABX/SPF” value was 0.67, the “fold of change GF/ABX” value is 1.86, the “fold of change GF/SPF” value is 1.24 and the “fold of change GF/Sp” value is recorded as 1.22. The “fold of change Sp/ABX” value is recorded as 1.52 and the “fold of change Sp/SPF” value stood at 1.01.

For `C[N+](C)(C)[C@@H](Cc1c[nH]c(=S)[nH]1)C(=O)[O-]` [compound 4079], the “fold of change ABX/SPF” value was 1.19, the “fold of change GF/ABX” value was found to be 0.66, the “fold of change GF/SPF” value is 0.79 and the “fold of change GF/Sp” value was 0.80. Besides, the “fold of change Sp/ABX” value was found to be 0.83 and the “fold of change Sp/SPF” value came to 0.98.
